Data taken from ChEMBL document CHEMBL3988442, “University of Dundee, Small-Polar-MMV Screening Library” (2021).

Sequences of proteins named here, by UniProt entry; tags and fusion partners are left off. Residues count along the entry.
UniProt A4I591, 1-473: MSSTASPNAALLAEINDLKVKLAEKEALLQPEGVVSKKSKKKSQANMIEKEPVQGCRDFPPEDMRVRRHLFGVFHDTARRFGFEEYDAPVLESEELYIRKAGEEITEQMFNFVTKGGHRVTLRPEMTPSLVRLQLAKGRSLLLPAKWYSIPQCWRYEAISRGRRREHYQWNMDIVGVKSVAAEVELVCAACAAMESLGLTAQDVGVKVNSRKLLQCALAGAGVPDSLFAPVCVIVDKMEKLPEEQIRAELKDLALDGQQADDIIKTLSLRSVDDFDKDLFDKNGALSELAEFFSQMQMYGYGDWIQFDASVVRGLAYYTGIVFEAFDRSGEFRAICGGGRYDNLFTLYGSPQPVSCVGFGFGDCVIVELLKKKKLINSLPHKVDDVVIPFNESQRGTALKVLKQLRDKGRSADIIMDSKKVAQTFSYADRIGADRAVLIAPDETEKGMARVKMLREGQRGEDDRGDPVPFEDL
UniProt Q8IDJ8, 1-583: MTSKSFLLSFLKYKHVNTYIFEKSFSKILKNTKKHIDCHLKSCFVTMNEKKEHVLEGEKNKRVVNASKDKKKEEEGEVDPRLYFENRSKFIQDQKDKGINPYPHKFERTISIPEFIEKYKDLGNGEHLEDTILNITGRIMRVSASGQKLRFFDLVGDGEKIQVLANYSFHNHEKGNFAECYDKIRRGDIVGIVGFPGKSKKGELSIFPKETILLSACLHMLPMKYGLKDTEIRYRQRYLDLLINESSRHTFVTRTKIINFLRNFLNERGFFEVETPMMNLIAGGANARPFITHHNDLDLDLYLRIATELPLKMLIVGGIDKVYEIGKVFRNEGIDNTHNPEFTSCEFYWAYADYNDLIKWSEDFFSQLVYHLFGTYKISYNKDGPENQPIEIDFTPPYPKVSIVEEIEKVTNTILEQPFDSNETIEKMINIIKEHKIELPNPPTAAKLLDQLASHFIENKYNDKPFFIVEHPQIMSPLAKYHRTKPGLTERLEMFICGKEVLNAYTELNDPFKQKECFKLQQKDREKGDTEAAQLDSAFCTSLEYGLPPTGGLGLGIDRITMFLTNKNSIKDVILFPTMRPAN
UniProt Q4DA54, 1-478: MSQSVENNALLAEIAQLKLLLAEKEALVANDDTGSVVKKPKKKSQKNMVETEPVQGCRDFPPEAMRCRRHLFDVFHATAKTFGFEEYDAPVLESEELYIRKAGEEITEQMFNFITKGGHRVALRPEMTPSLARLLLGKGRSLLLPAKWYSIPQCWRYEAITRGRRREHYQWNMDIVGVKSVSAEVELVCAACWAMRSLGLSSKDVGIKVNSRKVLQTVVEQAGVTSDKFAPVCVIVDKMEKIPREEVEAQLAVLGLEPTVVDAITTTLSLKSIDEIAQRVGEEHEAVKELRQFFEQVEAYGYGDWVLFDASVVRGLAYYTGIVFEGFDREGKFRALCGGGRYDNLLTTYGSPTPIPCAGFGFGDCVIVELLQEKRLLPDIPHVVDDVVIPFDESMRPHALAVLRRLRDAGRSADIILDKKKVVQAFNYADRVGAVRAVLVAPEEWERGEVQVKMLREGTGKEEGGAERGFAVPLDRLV

Values are the deposited “Percent Effect”, in %.
The controls that fix the scale are not given in the record; negative values are as filed.
The compounds are a random part of those screened.

LiHisRS: 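Histidine-tRNA ligase, Leishmania infantum (UniProt A4I591). Enzyme assay of histidyl-tRNA synthetase; the read-out is not stated. Compounds at 30 µM. Direction is inferred from retests: higher values go with stronger inhibition. The assay is labelled LdHisRS but filed under L. infantum. Of about 69,000 compounds tested this way, about 410 (0.6%) reached 50% or more in at least one test.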
PfKRS1: 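Enzyme assay of the cytosolic lysyl-tRNA synthetase in 384-well plates, read by luminescence. Target: Lysine-tRNA ligase, Plasmodium falciparum 3D7 (UniProt Q8IDJ8). Concentration: 30 µM. Direction is inferred from only a few compounds that gave an IC50; most scored high, so higher reads as stronger inhibition. About 69,000 compounds were tested under these conditions; 0.071% (about 49) showed 50% or more at least once.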
TcHisRS: 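Histidine-tRNA ligase, Trypanosoma cruzi CL Brener (UniProt Q4DA54). Enzyme assay of histidyl-tRNA synthetase; the read-out is not stated. Concentration: 30 µM. The record gives no direction; compounds that gave an IC50 in retests scored well above the rest, so higher reads as stronger inhibition. Size under these conditions: about 69,000 compounds, about 31 of them at 50% or above in at least one test.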

compound,LiHisRS,PfKRS1,TcHisRS
CC(NC(=O)N1CCC1)c1ccc(S(C)(=O)=O)cc1 (stereo not drawn),15.93%,6.774%,3.571%
CC(NC(=O)N1CCc2sccc2C1)c1nncn1C (stereo not drawn),28.57%,2.416%,5.422%
O=C(COCCOc1ccccc1)NC1CCN(C(=O)C2CC2)CC1,12.36%,8.047%,6.736%
CCn1c(CC2CCN(S(=O)(=O)N3CCCCC3)CC2)nn(C)c1=O,11.48%,3.237%,2.4%
Cc1ccc(CC2COCCN(Cc3ccccc3)C2)nc1 (stereo not drawn),20%,1.409%,14.94%
CCc1cc(N2CCCC(CC)(C(=O)O)C2)nc(N2CCOCC2)n1 (stereo not drawn),-7.229%,4.031%,4.972%
COc1cccc(-c2noc(-c3ccc(NCCCN)nc3)n2)c1OC,16.67%,6.228%,4.469%
CC(CN1CCOCC1)NC(=O)c1cccc2cn[nH]c12 (stereo not drawn),24.68%,10.86%,0.4926%
Cc1noc(C)c1CN1CCO[C@H]2CN(Cc3cccc(F)c3)C[C@H]21,17.12%,3.389%,11.05%
CC(C)N(CC1CCCN(Cc2ccon2)C1)C(=O)OC(C)(C)C (stereo not drawn),9.333%,8.754%,-0.578%
O=C(c1cc2cc(F)ccc2[nH]1)N1CCC(Nc2ccc(F)cc2)CC1,4.386%,1.193%,5.523%
Cn1ccc(CN2CCCC2c2ccc3c(c2)OCCCO3)cc1=O (stereo not drawn),38.3%,5.087%,6.107%
CC(C)Cc1ncc2c(n1)CN(c1nc(N(C)C)nc3c1CCCC3)C2,4.167%,0.01155%,-8.696%
CN1CCC(c2nnc(CN3CCCCC3)n2C)CC1,-6.024%,-2.506%,0%
O=C(O)c1ncccc1OCC(F)(F)F,12.82%,3.596%,5.556%
Fc1cccc(-c2nnn3c2COC(CNCc2cccs2)C3)c1 (stereo not drawn),8.571%,6.121%,8.824%
CCc1nc2n(n1)CC(NCc1ccnc(-c3ccccc3)n1)CC2 (stereo not drawn),7.576%,3.83%,1.515%
CC(C)c1cc(NCC(C)N2CCCC2)n2nccc2n1 (stereo not drawn),19.23%,6.105%,10%
NCC(=O)N1CCC2(CC1)CN(C(=O)Cc1ccc(Cl)cc1)CCO2,1.379%,3.338%,5.325%
Cc1ccc(O[C@@H]2C[C@H]3CN(Cc4nccn4C)CCN3C2)cc1,22.86%,9.237%,10.78%
CCCNC(=O)[C@@H]1CCCN1[C@@H](C(=O)NC)C1CC1,19.44%,5.149%,0%
CCc1ccc2nc(-c3cnn(C)c3)cc(C(=O)N3CCOCC3)c2c1,8.333%,1.35%,0.8696%
CCC(CN1CCCC1)NC(=O)Cc1c(C)[nH]c2c(C)cc(C)cc12 (stereo not drawn),7.586%,0.6382%,2.281%
Cc1noc(C)c1CN(C)C(=O)C1CCCCN1CC(C)C (stereo not drawn),13.33%,-3.197%,5.882%
CCc1nc(CN2CCCN(Cc3cnn(C)c3)CC2)no1,13.46%,4.185%,7.438%
Cc1ccc2cc(C(=O)N3CCC(Nc4cccnn4)CC3)[nH]c2c1,6.14%,-0.5152%,3.198%
Cc1noc(CCCC(=O)NC(C)c2nnc3n2CCC3)n1 (stereo not drawn),9.836%,-1.524%,5.814%
CCCNC(=O)CN1CCC(NC(=O)c2cc(CC)ccc2O)CC1,17.59%,-0.006693%,8.504%
O=C(CCNc1ccc(Br)cn1)NCc1ccncc1,13.7%,4.231%,11.11%
CC(CO)(NCc1noc(Cc2ccccc2)n1)C1CCCCC1 (stereo not drawn),16.33%,-1.275%,9%
CCn1cc(CN2CC3CCCN3C[C@H]2C)c(C)n1 (stereo partly drawn),19.44%,3.858%,5.946%
NCc1ccc(N2CCN(c3ncccn3)CC2)c(F)c1,-15.38%,2.066%,9.195%
O=C(NCc1ccoc1)Nc1cc(C(F)(F)F)c[nH]c1=O,16.51%,2.522%,4.118%
CCCC1(CO)CCCN(C(=O)CN2CCN(CC)CC2)C1 (stereo not drawn),8.434%,1.764%,6.468%
CCOC1CCN(C(=O)CN(C)c2cnccn2)CC1,14.68%,0.2812%,4.956%
CCOc1ccc(NC(C)=O)cc1S(=O)(=O)Nc1ccon1,16.85%,7.154%,7.772%
CCOc1cccc(CNC(=O)NCC(O)c2cccc(F)c2)c1 (stereo not drawn),26.19%,8.019%,3.759%
O=C(NCc1cn2c(n1)CN(Cc1cccnc1)CC2)C1CCC1,-5.714%,1.298%,7.843%
Cc1cc(C)c2c(N3CCC(C(=O)N4CCOCC4)CC3)ncnc2n1,16.33%,0.6268%,15%
Cc1cnc(CC2COCCN(Cc3nccn3C)C2)cn1 (stereo not drawn),21.74%,0.6283%,9.89%
Cc1cc(C(=O)N2CCC3(CC2)CC(c2cccnc2)C(=O)N3C)no1 (stereo not drawn),17.81%,3.445%,0%
COc1cc(NCCNC(=O)c2cscc2C)cc(OC)c1,16.67%,0.6215%,2.353%
Cc1nc(=O)c2ccccc2n1C1=CCN(CC(=O)NC(C)C)CC1,21.48%,0.6417%,7.143%
Cn1ncc(C2CC(=O)NCc3nc4ccccn4c32)c1C1CC1 (stereo not drawn),16.67%,13.89%,6.122%
O=C(C1CCC2(CCN(CC3CCOCC3)CC2)O1)N1CCCC1 (stereo not drawn),21.36%,0%,9.709%
c1ncn(CC2CCCN(Cc3csc(-c4ccsc4)n3)C2)n1 (stereo not drawn),23.68%,-0.247%,7.849%
O=C1CN(CCCNC(=O)Nc2cccc(Cl)c2F)CCN1,21.88%,3.132%,2.128%
CCOC(=O)Cn1cccc(S(=O)(=O)N2CCCC2)c1=O,13.16%,4.316%,4.094%
CN1CCOC(CNCc2coc(-c3cccc(F)c3)n2)C1 (stereo not drawn),10.71%,-1.559%,1.744%
COc1cccc(CN2CC(O)CN(C(=O)C3CC3)CC2=O)c1OC (stereo not drawn),14.29%,3.674%,11.24%
Cc1ccc(Br)cc1C(=O)Nc1cc(C(N)=O)n(C)c1,-2.073%,6.709%,0.5525%

For reference, 3 entries once more:

* Cc1ccc(O[C@@H]2C[C@H]3CN(Cc4nccn4C)CCN3C2)cc1 : LiHisRS: 22.86%; PfKRS1: 9.237%; TcHisRS: 10.78%
* CCc1cc(N2CCCC(CC)(C(=O)O)C2)nc(N2CCOCC2)n1 (stereo not drawn) : LiHisRS: -7.229%; PfKRS1: 4.031%; TcHisRS: 4.972%
* CC(C)Cc1ncc2c(n1)CN(c1nc(N(C)C)nc3c1CCCC3)C2 : LiHisRS: 4.167%; PfKRS1: 0.01155%; TcHisRS: -8.696%